Measured values published in the supplement of paper PMC8728848.
This is one part of the list.

What was measured:
Test in all cases: glycan array binding signal (z-score within array); higher = stronger binding
Settings in all cases: glycan notation: IUPAC condensed, linker removed
[1] = molecular target: Neu5Ac(a2-3)Gal(b1-4)GlcNAc(b1-2)[Neu5Ac(a2-3)Gal(b1-4)GlcNAc(b1-4)]Man(a1-3)[GlcNAc(b1-4)][Neu5Ac(a2-3)Gal(b1-4)GlcNAc(b1-2)[Neu5Ac(a2-3)Gal(b1-4)GlcNAc(b1-6)]Man(a1-6)]Man(b1-4)GlcNAc(b1-4)GlcNAc
Summary of the method: (§1)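 The binding signal is a Z-score computed within each array. Data were drawn from 3228 arrays in the Consortium for Functional Glycomics database, restricted to those with a known protein sequence. Scores were averaged over arrays of the same protein sequence at different concentrations or buffers, and over linkers, and negative values can be taken as non-binding.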

[2] = molecular target: Neu5Ac(a2-3)Gal(b1-4)GlcNAc(b1-2)[Neu5Ac(a2-3)Gal(b1-4)GlcNAc(b1-4)]Man(a1-3)[GlcNAc(b1-4)][Neu5Ac(a2-3)Gal(b1-4)GlcNAc(b1-4)Man(a1-6)]Man(b1-4)GlcNAc(b1-4)GlcNAc
Summary of the method: as §1

[3] = molecular target: Neu5Ac(a2-3)Gal(b1-4)GlcNAc(b1-2)[Neu5Ac(a2-3)Gal(b1-4)GlcNAc(b1-6)]Man(a1-6)[Neu5Ac(a2-3)Gal(b1-4)GlcNAc(b1-2)Man(a1-3)][GlcNAc(b1-4)]Man(b1-4)GlcNAc(b1-4)GlcNAc
Summary of the method: as §1

[4] = molecular target: Neu5Ac(a2-3)Gal(b1-4)GlcNAc(b1-3)Gal
Summary of the method: as §1

[5] = molecular target: Neu5Ac(a2-3)Gal(b1-4)GlcNAc(b1-3)Gal(b1-3)GlcNAc
Summary of the method: as §1

[6] = molecular target: Neu5Ac(a2-3)Gal(b1-4)GlcNAc(b1-3)Gal(b1-4)GlcNAc
Summary of the method: as §1

[7] = molecular target: Neu5Ac(a2-3)Gal(b1-4)GlcNAc(b1-3)Gal(b1-4)GlcNAc(b1-2)Man(a1-3)[Neu5Ac(a2-3)Gal(b1-4)GlcNAc(b1-3)Gal(b1-4)GlcNAc(b1-2)Man(a1-6)]Man(b1-4)GlcNAc(b1-4)GlcNAc
Summary of the method: as §1

[8] = molecular target: Neu5Ac(a2-3)Gal(b1-4)GlcNAc(b1-3)Gal(b1-4)GlcNAc(b1-3)Gal(b1-4)GlcNAc
Summary of the method: as §1

[9] = molecular target: Neu5Ac(a2-3)Gal(b1-4)GlcNAc(b1-3)Gal(b1-4)GlcNAc(b1-3)Gal(b1-4)GlcNAc(b1-2)Man(a1-3)[Neu5Ac(a2-3)Gal(b1-4)GlcNAc(b1-3)Gal(b1-4)GlcNAc(b1-3)Gal(b1-4)GlcNAc(b1-2)Man(a1-6)]GalNAc
Summary of the method: as §1

[10] = molecular target: Neu5Ac(a2-3)Gal(b1-4)GlcNAc(b1-3)Gal(b1-4)GlcNAc(b1-3)GalNAc
Summary of the method: as §1

[11] = molecular target: Neu5Ac(a2-3)Gal(b1-4)GlcNAc(b1-3)Gal(b1-4)GlcNAc(b1-3)[Neu5Ac(a2-3)Gal(b1-4)GlcNAc(b1-3)Gal(b1-4)GlcNAc(b1-6)]GalNAc
Summary of the method: as §1

[12] = molecular target: Neu5Ac(a2-3)Gal(b1-4)GlcNAc(b1-3)Gal(b1-4)GlcNAc(b1-6)[Gal(b1-3)]GalNAc
Summary of the method: as §1

[13] = molecular target: Neu5Ac(a2-3)Gal(b1-4)GlcNAc(b1-3)Gal(b1-4)[Fuc(a1-3)]GlcNAc
Summary of the method: as §1

[14] = molecular target: Neu5Ac(a2-3)Gal(b1-4)GlcNAc(b1-3)GalNAc
Summary of the method: as §1

[15] = molecular target: Neu5Ac(a2-3)Gal(b1-4)GlcNAc(b1-3)[Neu5Ac(a2-3)Gal(b1-4)GlcNAc(b1-6)]GalNAc
Summary of the method: as §1

[16] = molecular target: Neu5Ac(a2-3)Gal(b1-4)GlcNAc(b1-6)GalNAc
Summary of the method: as §1

[17] = molecular target: Neu5Ac(a2-3)Gal(b1-4)GlcNAc(b1-6)[Gal(b1-3)]GalNAc
Summary of the method: as §1

[18] = molecular target: Neu5Ac(a2-3)Gal(b1-4)GlcNAc(b1-6)[Neu5Ac(a2-3)Gal(b1-3)]GalNAc
Summary of the method: as §1

[19] = molecular target: Neu5Ac(a2-3)Gal(b1-4)GlcNAc6S
Summary of the method: as §1

[20] = molecular target: Neu5Ac(a2-3)Gal(b1-4)[Fuc(a1-3)]GlcNAc
Summary of the method: as §1

[21] = molecular target: Neu5Ac(a2-3)Gal(b1-4)[Fuc(a1-3)]GlcNAc(b1-2)Man
Summary of the method: as §1

[22] = molecular target: Neu5Ac(a2-3)Gal(b1-4)[Fuc(a1-3)]GlcNAc(b1-3)Gal
Summary of the method: as §1

[23] = molecular target: Neu5Ac(a2-3)Gal(b1-4)[Fuc(a1-3)]GlcNAc(b1-3)Gal(b1-4)GlcNAc
Summary of the method: as §1

[24] = molecular target: Neu5Ac(a2-3)Gal(b1-4)[Fuc(a1-3)]GlcNAc(b1-3)Gal(b1-4)[Fuc(a1-3)]GlcNAc(b1-3)Gal(b1-4)[Fuc(a1-3)]GlcNAc
Summary of the method: as §1

[25] = molecular target: Neu5Ac(a2-3)Gal(b1-4)[Fuc(a1-3)]GlcNAc(b1-3)GalNAc
Summary of the method: as §1

[26] = molecular target: Neu5Ac(a2-3)Gal(b1-4)[Fuc(a1-3)]GlcNAc(b1-6)[Gal(b1-3)]GalNAc
Summary of the method: as §1

[27] = molecular target: Neu5Ac(a2-3)Gal(b1-4)[Fuc(a1-3)]GlcNAc(b1-6)[Neu5Ac(a2-3)Gal(b1-3)]GalNAc
Summary of the method: as §1

[28] = molecular target: Neu5Ac(a2-3)Gal(b1-4)[Fuc(a1-3)]GlcNAc6S
Summary of the method: as §1

[29] = molecular target: Neu5Ac(a2-3)Gal6S(b1-4)GlcNAc
Summary of the method: as §1

[30] = molecular target: Neu5Ac(a2-3)Gal6S(b1-4)[Fuc(a1-3)]GlcNAc
Summary of the method: as §1

Neu5Ac(a2-3)GalNAc = molecular target: Neu5Ac(a2-3)GalNAc
Summary of the method: as §1

[31] = molecular target: Neu5Ac(a2-3)GalNAc(b1-4)GlcNAc
Summary of the method: as §1

[32] = molecular target: Neu5Ac(a2-3)[GalNAc(b1-4)]Gal(b1-4)Glc
Summary of the method: as §1

[33] = molecular target: Neu5Ac(a2-3)[GalNAc(b1-4)]Gal(b1-4)GlcNAc
Summary of the method: as §1

[34] = molecular target: Neu5Ac(a2-3)[GalNAc(b1-4)]Gal(b1-4)GlcNAc(b1-3)GalNAc
Summary of the method: as §1

[35] = molecular target: Neu5Ac(a2-3)[Neu5Ac(a2-6)]GalNAc
Summary of the method: as §1

Neu5Ac(a2-6)Gal = molecular target: Neu5Ac(a2-6)Gal
Summary of the method: as §1

B1: truncCC1G-10077 (Coprinopsis cinerea) (protein)
chain: MHHHHHHHHPLPSPGPGWVLIQNGGTGKFLCSTPSGDIGTADGPETVYDYSVQWRFIQREYTGVYHVVNRATGAYLRQIGTSMPSIGLAEENDDELKDWWMLETYDNSEIGLASIISRWTGNVLDHYGGVSVQALDNNTENSYRSWAIIPARDWLTSFSLVNGQGGLCLAAQYAREETRLSTTANVNDFHAQWVFRKPSGSSGYTIQNKYNNHYVGGTSARWELVVCCNKYFGIRNTSTQKYLAIEDGQVTFQDQDMTDRKQCWELCSGRATDTSGNDYDLIYMDDDLLEVMIPWVGDKQGDLKHYIEKRATKKPPKDKGGWQLPAAGLIKKPKFNDIRQLLQELIEQWEWDVVNEEREQIQTLVSIDEAEARRLLGRRPHPDIVAAYQRSRSSTLFRIDRQGYFNIAGDRYVNIQGQYGDDSYFHIALPVGVRFGREQIRRFLRDSLDRSTSVTITPTTCKPPSGGPDYNRDPDSDGDNSWIKWTIAVVGTSAIKHSEL
In the case of B1, the “glycan array binding signal (z-score)” value [1] is reported as 1.51, the “glycan array binding signal (z-score)” value [2] is reported as 0.077 and the “glycan array binding signal (z-score)” value [3] is reported as -0.478. The “glycan array binding signal (z-score)” value [4] was -0.492, the “glycan array binding signal (z-score)” value [5] was -0.855 and the “glycan array binding signal (z-score)” value [6] was -0.788. The “glycan array binding signal (z-score)” value [7] was 0.036, the “glycan array binding signal (z-score)” value [8] was -1.07 and the “glycan array binding signal (z-score)” value [9] was 0.381. The “glycan array binding signal (z-score)” value [10] was 0.244, the “glycan array binding signal (z-score)” value [11] was 0.736 and the “glycan array binding signal (z-score)” value [12] was 1.16. The “glycan array binding signal (z-score)” value [13] was 0.12, the “glycan array binding signal (z-score)” value [14] was -0.5 and the “glycan array binding signal (z-score)” value [15] was 0.561. The “glycan array binding signal (z-score)” value [16] was -0.355, the “glycan array binding signal (z-score)” value [17] was -0.304 and the “glycan array binding signal (z-score)” value [18] was -0.613. The “glycan array binding signal (z-score)” value [19] was -0.621, the “glycan array binding signal (z-score)” value [20] was -1 and the “glycan array binding signal (z-score)” value [21] was 0.04. For the same binder, the “glycan array binding signal (z-score)” value [22] was -1.4, the “glycan array binding signal (z-score)” value [23] was 0.654 and the “glycan array binding signal (z-score)” value [24] was 0.128. For the same binder, the “glycan array binding signal (z-score)” value [25] was 0.937, the “glycan array binding signal (z-score)” value [26] was 0.788 and the “glycan array binding signal (z-score)” value [27] was 3.72. For the same binder, the “glycan array binding signal (z-score)” value [28] was 0.867, the “glycan array binding signal (z-score)” value [29] was -0.44 and the “glycan array binding signal (z-score)” value [30] was -0.931. For the same binder, the “glycan array binding signal (z-score)” value (Neu5Ac(a2-3)GalNAc) was -1.31, the “glycan array binding signal (z-score)” value [31] was -0.586 and the “glycan array binding signal (z-score)” value [32] was -1.1. For the same binder, the “glycan array binding signal (z-score)” value [33] was -0.926, the “glycan array binding signal (z-score)” value [34] was 2.23 and the “glycan array binding signal (z-score)” value [35] was -0.289. The “glycan array binding signal (z-score)” value (Neu5Ac(a2-6)Gal) was -0.7.
